Assay results from article PMC4743010.
Residue numbers refer to the chain shown, from its start. No constants are given. Whether binding was seen depends on the method and setting. For some of these results: In cells and extracts the contact can be indirect. Some results given as binding are weak or reduced against the parent protein; the word gives no strength. For some of these results: Where a sequence is shown, tags or fusion partners need not be part of it.

Amino acid sequences for entries named in this document (tags omitted).
UniProt Q96Q15: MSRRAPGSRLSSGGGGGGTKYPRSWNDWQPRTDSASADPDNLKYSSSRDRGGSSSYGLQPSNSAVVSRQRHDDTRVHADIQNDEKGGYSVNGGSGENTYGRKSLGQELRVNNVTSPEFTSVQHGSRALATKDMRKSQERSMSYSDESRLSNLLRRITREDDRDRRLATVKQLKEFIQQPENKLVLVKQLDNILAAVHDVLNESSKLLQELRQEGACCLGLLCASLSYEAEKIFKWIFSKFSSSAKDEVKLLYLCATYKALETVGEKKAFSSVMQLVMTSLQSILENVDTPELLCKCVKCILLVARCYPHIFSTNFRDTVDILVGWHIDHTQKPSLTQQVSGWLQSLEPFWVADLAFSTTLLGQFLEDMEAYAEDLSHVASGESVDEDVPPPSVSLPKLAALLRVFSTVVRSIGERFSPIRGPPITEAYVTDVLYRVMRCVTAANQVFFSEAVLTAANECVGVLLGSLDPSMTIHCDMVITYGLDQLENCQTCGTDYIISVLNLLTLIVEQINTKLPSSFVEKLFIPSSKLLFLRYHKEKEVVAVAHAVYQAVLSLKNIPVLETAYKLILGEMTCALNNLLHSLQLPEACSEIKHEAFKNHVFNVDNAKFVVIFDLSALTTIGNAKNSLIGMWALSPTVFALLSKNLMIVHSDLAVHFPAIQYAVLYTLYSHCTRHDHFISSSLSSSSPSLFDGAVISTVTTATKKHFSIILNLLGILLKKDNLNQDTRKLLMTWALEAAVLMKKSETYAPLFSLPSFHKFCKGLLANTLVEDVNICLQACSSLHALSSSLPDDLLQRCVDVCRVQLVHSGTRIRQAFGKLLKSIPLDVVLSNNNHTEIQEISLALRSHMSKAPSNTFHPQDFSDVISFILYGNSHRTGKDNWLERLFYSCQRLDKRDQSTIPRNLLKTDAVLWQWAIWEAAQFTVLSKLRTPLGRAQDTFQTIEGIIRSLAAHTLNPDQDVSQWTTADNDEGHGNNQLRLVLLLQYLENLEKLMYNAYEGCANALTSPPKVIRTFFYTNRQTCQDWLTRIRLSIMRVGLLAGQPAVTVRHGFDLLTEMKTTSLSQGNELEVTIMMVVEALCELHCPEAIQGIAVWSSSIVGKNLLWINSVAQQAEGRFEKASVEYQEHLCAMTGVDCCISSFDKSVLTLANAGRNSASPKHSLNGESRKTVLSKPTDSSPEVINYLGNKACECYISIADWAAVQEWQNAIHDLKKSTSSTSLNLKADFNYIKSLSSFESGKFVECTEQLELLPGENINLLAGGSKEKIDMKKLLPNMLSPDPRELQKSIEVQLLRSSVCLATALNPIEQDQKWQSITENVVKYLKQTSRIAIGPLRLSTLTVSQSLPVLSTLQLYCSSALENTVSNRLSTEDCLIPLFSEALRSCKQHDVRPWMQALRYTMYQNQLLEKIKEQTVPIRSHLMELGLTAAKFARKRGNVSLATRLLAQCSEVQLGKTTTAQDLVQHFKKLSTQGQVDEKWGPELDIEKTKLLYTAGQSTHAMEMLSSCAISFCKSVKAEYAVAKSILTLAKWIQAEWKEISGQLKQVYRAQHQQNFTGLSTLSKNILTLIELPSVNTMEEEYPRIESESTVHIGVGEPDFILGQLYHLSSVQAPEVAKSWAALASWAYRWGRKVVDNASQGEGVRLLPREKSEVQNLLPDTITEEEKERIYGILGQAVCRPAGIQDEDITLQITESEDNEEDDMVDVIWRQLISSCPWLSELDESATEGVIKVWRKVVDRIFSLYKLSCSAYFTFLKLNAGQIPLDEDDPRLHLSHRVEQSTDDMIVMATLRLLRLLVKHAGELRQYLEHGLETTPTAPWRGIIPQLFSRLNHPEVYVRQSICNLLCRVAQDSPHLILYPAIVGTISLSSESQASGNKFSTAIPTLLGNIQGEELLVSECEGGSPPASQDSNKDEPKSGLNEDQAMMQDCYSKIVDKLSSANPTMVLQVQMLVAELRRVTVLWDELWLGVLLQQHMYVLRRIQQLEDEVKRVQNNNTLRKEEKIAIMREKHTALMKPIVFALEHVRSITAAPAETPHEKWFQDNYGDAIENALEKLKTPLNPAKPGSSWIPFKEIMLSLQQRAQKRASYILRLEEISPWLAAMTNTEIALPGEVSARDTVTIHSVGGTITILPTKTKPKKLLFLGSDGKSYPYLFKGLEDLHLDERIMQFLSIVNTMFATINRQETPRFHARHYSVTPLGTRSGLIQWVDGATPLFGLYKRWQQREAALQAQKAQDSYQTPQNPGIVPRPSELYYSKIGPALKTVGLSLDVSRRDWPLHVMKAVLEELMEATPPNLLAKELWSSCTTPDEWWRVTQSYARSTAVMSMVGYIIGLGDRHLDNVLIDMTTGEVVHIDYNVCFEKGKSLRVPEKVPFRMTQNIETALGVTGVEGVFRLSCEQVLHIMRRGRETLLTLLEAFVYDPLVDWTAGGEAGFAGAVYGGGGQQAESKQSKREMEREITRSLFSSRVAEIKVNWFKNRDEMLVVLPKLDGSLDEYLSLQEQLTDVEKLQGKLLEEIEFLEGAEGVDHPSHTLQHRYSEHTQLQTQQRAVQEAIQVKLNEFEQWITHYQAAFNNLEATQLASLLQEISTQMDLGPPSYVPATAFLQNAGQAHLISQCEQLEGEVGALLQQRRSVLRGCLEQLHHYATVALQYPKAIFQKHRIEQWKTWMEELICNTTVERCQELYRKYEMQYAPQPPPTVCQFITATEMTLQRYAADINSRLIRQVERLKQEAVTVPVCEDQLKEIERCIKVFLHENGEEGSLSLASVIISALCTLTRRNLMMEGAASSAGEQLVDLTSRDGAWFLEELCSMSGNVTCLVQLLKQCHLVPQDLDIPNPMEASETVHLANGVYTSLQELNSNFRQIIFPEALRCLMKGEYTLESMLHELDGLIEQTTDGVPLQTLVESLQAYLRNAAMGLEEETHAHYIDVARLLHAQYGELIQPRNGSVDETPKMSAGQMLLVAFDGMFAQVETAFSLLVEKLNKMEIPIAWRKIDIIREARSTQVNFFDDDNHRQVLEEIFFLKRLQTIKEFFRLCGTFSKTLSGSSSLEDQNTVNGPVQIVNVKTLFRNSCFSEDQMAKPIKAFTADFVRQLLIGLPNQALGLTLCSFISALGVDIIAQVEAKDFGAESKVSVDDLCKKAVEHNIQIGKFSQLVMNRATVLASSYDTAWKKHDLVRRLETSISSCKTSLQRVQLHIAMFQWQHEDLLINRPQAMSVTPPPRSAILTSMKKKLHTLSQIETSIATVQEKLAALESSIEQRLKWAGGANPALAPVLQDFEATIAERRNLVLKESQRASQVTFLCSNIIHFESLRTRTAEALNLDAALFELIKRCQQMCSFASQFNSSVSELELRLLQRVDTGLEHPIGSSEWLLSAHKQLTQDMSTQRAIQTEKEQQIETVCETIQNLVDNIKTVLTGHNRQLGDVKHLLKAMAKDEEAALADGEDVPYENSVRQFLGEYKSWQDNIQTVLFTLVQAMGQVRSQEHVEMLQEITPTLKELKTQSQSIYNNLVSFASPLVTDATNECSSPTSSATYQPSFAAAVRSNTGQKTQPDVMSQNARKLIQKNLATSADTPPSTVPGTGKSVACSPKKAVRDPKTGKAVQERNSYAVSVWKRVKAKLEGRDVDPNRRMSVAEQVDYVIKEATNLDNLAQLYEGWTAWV

Columns and labels:
[1] = target: T1, FLAG-UPF1 (pcIneo-FLAG-UPF1) (UniProt Q92900); assay: co-IP; FLAG-UPF1 or FLAG-GFP co-transfected with T7-DHX34 constructs in HEK293T; anti-FLAG immunoprecipitates probed for T7-DHX34 constructs
T1 sequence: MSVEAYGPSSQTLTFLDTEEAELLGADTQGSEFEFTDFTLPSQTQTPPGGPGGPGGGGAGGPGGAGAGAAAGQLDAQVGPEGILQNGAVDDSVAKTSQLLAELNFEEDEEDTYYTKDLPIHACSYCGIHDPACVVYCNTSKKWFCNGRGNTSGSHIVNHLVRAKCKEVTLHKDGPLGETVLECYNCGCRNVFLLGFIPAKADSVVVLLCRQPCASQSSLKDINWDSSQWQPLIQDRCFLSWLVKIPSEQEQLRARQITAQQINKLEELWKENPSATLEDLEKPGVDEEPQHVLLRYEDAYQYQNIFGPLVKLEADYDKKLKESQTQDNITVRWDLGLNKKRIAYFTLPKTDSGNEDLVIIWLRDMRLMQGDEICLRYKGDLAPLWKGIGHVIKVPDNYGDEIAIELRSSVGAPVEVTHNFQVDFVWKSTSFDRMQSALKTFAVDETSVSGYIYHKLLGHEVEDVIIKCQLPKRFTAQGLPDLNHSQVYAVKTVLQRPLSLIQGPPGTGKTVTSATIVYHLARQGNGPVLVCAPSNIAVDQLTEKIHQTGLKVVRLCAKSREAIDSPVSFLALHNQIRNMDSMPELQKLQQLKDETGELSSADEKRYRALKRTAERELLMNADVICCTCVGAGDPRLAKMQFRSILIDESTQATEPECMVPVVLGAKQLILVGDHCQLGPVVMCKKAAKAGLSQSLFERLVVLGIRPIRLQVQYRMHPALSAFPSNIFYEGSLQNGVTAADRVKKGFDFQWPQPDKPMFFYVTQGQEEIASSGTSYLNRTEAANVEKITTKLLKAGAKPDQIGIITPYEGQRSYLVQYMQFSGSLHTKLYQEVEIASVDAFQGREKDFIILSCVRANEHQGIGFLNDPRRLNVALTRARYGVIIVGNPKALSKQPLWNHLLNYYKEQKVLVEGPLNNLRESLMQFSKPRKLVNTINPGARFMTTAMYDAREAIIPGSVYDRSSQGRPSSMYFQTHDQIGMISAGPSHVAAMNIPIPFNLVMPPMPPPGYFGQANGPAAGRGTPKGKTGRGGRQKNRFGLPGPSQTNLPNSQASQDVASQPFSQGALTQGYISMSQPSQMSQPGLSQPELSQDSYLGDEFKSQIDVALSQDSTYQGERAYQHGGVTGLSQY

[2] = target: T2, purified FLAG-tagged full-length UPF1 (UniProt Q92900); assay: pull-down; co-incubation of purified T7-DHX34 (full-length, ΔCTD, 1–809) with purified FLAG-tagged full-length UPF1 or UPF1 (115–914); performed as described previously (ref. 38); both purified
T2 sequence: T1 sequence

[3] = target: T3, 3XFLAG-UPF1 wild-type (pCDNA3-3XFLAG-UPF1) (UniProt Q92900); assay: co-IP; sequential: 3XFLAG-UPF1 (wild-type or C126S) with T7-DHX34 or T7-YFP in HEK293T; anti-FLAG IP, FLAG peptide elution, then anti-T7 agarose IP; blot for endogenous SMG1
T3 sequence: T1 sequence

[4] = target: T4, 3XFLAG-UPF1 C126S (pCDNA3-3XFLAG-UPF1 C126S mutant) (UniProt Q92900); assay: as above
T4 sequence: T1 sequence with C126S

[5] = target: FLAG-SMG1 (pCMV6-SMG1-MYC-FLAG) (UniProt Q96Q15); assay: co-IP; sequential: FLAG-SMG1, MYC-UPF1 and T7-DHX34 co-expressed in HEK293T; anti-FLAG IP, FLAG peptide elution, then anti-T7 agarose IP

Measured: binding

B1: T7-DHX34 full-length (enzyme, UniProt Q14147 1-1143)
chain: MPPPRTREGRDRRDHHRAPSEEEALEKWDWNCPETRRLLEDAFFREEDYIRQGSEECQKFWTFFERLQRFQNLKTSRKEEKDPGQPKHSIPALADLPRTYDPRYRINLSVLGPATRGSQGLGRHLPAERVAEFRRALLHYLDFGQKQAFGRLAKLQRERAALPIAQYGNRILQTLKEHQVVVVAGDTGCGKSTQVPQYLLAAGFSHVACTQPRRIACISLAKRVGFESLSQYGSQVGYQIRFESTRSAATKIVFLTVGLLLRQIQREPSLPQYEVLIVDEVHERHLHNDFLLGVLQRLLPTRPDLKVILMSATINISLFSSYFSNAPVVQVPGRLFPITVVYQPQEAEPTTSKSEKLDPRPFLRVLESIDHKYPPEERGDLLVFLSGMAEISAVLEAAQTYASHTQRWVVLPLHSALSVADQDKVFDVAPPGVRKCILSTNIAETSVTIDGIRFVVDSGKVKEMSYDPQAKLQRLQEFWISQASAEQRKGRAGRTGPGVCFRLYAESDYDAFAPYPVPEIRRVALDSLVLQMKSMSVGDPRTFPFIEPPPPASLETAILYLRDQGALDSSEALTPIGSLLAQLPVDVVIGKMLILGSMFSLVEPVLTIAAALSVQSPFTRSAQSSPECAAARRPLESDQGDPFTLFNVFNAWVQVKSERSRNSRKWCRRRGIEEHRLYEMANLRRQFKELLEDHGLLAGAQAAQVGDSYSRLQQRRERRALHQLKRQHEEGAGRRRKVLRLQEEQDGGSSDEDRAGPAPPGASDGVDIQDVKFKLRHDLAQLQAAASSAQDLSREQLALLKLVLGRGLYPQLAVPDAFNSSRKDSDQIFHTQAKQGAVLHPTCVFAGSPEVLHAQELEASNCDGSRDDKDKMSSKHQLLSFVSLLETNKPYLVNCVRIPALQSLLLFSRSLDTNGDCSRLVADGWLELQLADSESAIRLLAASLRLRARWESALDRQLAHQAQQQLEEEEEDTPVSPKEVATLSKELLQFTASKIPYSLRRLTGLEVQNMYVGPQTIPATPHLPGLFGSSTLSPHPTKGGYAVTDFLTYNCLTNDTDLYSDCLRTFWTCPHCGLHAPLTPLERIAHENTCPQAPQDGPPGAEEAALETLQKTSVLQRPYHCEACGKDFLFTPTEVLRHRKQHV
binds: all assays above

B2: T7-DHX34 (1–809) (domain or fragment, UniProt Q14147 1-809)
chain: MPPPRTREGRDRRDHHRAPSEEEALEKWDWNCPETRRLLEDAFFREEDYIRQGSEECQKFWTFFERLQRFQNLKTSRKEEKDPGQPKHSIPALADLPRTYDPRYRINLSVLGPATRGSQGLGRHLPAERVAEFRRALLHYLDFGQKQAFGRLAKLQRERAALPIAQYGNRILQTLKEHQVVVVAGDTGCGKSTQVPQYLLAAGFSHVACTQPRRIACISLAKRVGFESLSQYGSQVGYQIRFESTRSAATKIVFLTVGLLLRQIQREPSLPQYEVLIVDEVHERHLHNDFLLGVLQRLLPTRPDLKVILMSATINISLFSSYFSNAPVVQVPGRLFPITVVYQPQEAEPTTSKSEKLDPRPFLRVLESIDHKYPPEERGDLLVFLSGMAEISAVLEAAQTYASHTQRWVVLPLHSALSVADQDKVFDVAPPGVRKCILSTNIAETSVTIDGIRFVVDSGKVKEMSYDPQAKLQRLQEFWISQASAEQRKGRAGRTGPGVCFRLYAESDYDAFAPYPVPEIRRVALDSLVLQMKSMSVGDPRTFPFIEPPPPASLETAILYLRDQGALDSSEALTPIGSLLAQLPVDVVIGKMLILGSMFSLVEPVLTIAAALSVQSPFTRSAQSSPECAAARRPLESDQGDPFTLFNVFNAWVQVKSERSRNSRKWCRRRGIEEHRLYEMANLRRQFKELLEDHGLLAGAQAAQVGDSYSRLQQRRERRALHQLKRQHEEGAGRRRKVLRLQEEQDGGSSDEDRAGPAPPGASDGVDIQDVKFKLRHDLAQLQAAASSAQDLSREQLALLKLVLGRGLY
binds: [1] | [2]
